From publication PMC3493543 come the findings set out here.

This test has as its target T1, GTF2IRD1 C-terminal truncation TR1 (aa 1-932) fused to the GAL4 DNA-binding domain (human) (UniProt Q9UHL9).
T1 sequence: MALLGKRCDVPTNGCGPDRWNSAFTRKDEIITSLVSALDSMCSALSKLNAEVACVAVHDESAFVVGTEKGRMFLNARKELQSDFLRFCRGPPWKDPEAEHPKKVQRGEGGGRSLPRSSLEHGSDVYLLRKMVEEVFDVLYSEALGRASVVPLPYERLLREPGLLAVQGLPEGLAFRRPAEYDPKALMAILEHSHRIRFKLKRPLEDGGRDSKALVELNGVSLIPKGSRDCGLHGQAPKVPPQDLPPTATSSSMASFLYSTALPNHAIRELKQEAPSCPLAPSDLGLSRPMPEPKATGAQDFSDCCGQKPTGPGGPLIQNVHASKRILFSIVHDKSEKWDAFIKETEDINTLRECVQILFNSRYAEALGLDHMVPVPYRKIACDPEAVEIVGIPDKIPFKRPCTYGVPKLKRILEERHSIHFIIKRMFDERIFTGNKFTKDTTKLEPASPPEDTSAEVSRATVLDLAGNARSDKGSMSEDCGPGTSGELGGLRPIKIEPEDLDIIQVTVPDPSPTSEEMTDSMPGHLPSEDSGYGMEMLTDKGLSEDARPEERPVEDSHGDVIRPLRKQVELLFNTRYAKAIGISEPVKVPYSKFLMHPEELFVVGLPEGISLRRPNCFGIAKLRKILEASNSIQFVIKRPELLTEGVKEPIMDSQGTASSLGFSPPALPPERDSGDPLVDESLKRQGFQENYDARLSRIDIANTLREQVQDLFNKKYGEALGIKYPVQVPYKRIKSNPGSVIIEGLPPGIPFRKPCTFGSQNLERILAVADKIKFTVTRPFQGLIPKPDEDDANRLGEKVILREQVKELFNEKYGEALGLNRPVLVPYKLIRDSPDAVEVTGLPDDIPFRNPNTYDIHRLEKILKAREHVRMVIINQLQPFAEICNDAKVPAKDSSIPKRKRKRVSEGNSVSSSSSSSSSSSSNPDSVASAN
Put plainly: two-hybrid; Matchmaker system; co-transformation of pGBKT7 bait and pGADT7 prey into S. cerevisiae AH109; double transformants from DDO plates re-spotted on QDO plates with x-α-galactosidase (HIS3, ADE2, MEL1 markers).

Results are given in words; binding and its absence hold for the method and conditions named. Where a sequence is shown, tags or fusion partners need not be part of it.

Regarding “PIASxβ fused to the GAL4 activation domain (pGADT7-PIASxβ) (from UniProt Q8C5D8-1 1-621) (enzyme)”, the binding result is recorded as “no binding”.
